Results from the supplement of paper PMC4862054.
Most entries show no effect beyond the scatter of the controls.

Assays:
Assay in all cases: normalised response (% of control), CellTox Green; higher = less cell death (100 = DMSO, 0 = benzethonium chloride kill control)
Settings in all cases: incubation time: 72 h
CAL-85-1 = system: CAL-85-1
Description: (§1)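 DSRT, 72 h incubation, CellTox Green / CellTiter-Glo readout. Signal is normalised to DMSO and benzethonium chloride controls. Value is the normalised response at the lowest tested concentration.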

MDA-MB-468 = system: MDA-MB-468
Description: as §1

BT-549 = system: BT-549
Description: as §1

HCC1143 = system: HCC1143
Description: as §1

DU-4475 = system: DU-4475
Description: as §1

MDA-MB-453 = system: MDA-MB-453
Description: as §1

CAL-120 = system: CAL-120
Description: as §1

MDA-MB-436 = system: MDA-MB-436
Description: as §1

MFM-223 = system: MFM-223
Description: as §1

BT-474 = system: BT-474
Description: as §1

MDA-MB-231 = system: MDA-MB-231
Description: as §1

Hs578T = system: Hs578T
Description: as §1

HCC1937 = system: HCC1937
Description: as §1

HCC1599 = system: HCC1599
Description: as §1

CAL-148 = system: CAL-148
Description: as §1

CAL-51 = system: CAL-51
Description: as §1

HDQ-P1 = system: HDQ-P1
Description: as §1

MCF-10A = system: MCF-10A
Description: as §1

With O=C(c1ccc(C(=O)N2CCC(N3CCCC3)CC2)c(Nc2ccccc2)c1)N1CCC(N2CCCC2)CC1 [UNC1215] (3 nM) the normalised response (CAL-85-1) was 84.4%, the normalised response (MDA-MB-468) was 71.8% and the normalised response (BT-549) was 84.7%. The normalised response (HCC1143) was 92.4%, the normalised response (DU-4475) was 102% and the normalised response (MDA-MB-453) was 101%. It also gave a normalised response (CAL-120) of 101%, a normalised response (MDA-MB-436) of 91.9% and a normalised response (MFM-223) of 98.6%. For the same molecule, the normalised response (BT-474) was 99.1%, the normalised response (MDA-MB-231) was 102% and the normalised response (Hs578T) was 105%. The normalised response (HCC1937) was 103%, the normalised response (HCC1599) was 105% and the normalised response (CAL-148) was 94.4%. It also gave a normalised response (CAL-51) of 112%.

For CCNC(=O)CCC/C=C\C[C@@H]1[C@@H](/C=C/[C@@H](O)CCc2ccccc2)[C@H](O)C[C@@H]1O [Bimatoprost] (0.55 nM), the normalised response (CAL-85-1) was 104%, the normalised response (MDA-MB-468) was 73.4% and the normalised response (BT-549) was 83.7%. For the same molecule, the normalised response (HDQ-P1) was 98.6%, the normalised response (HCC1143) was 92.4% and the normalised response (DU-4475) was 97.3%. The normalised response (MDA-MB-453) was 100%, the normalised response (CAL-120) was 103% and the normalised response (MDA-MB-436) was 85.9%. For the same molecule, the normalised response (MCF-10A) was 97.3%, the normalised response (MFM-223) was 67.5% and the normalised response (BT-474) was 97.5%. It also gave a normalised response (MDA-MB-231) of 98.8%, a normalised response (HCC1599) of 98% and a normalised response (CAL-148) of 99.8%. It also gave a normalised response (CAL-51) of 109%.

O=C(CCCCCCC(=O)Nc1ccccc1)NO [Vorinostat] (1 nM) was tested, and the normalised response (CAL-85-1) was 97.9%, the normalised response (MDA-MB-468) was 88.2% and the normalised response (HCC1143) was 109%. For the same molecule, the normalised response (DU-4475) was 97.1%, the normalised response (MDA-MB-453) was 100% and the normalised response (CAL-120) was 103%. For the same molecule, the normalised response (MDA-MB-436) was 89.2%, the normalised response (MCF-10A) was 84% and the normalised response (MFM-223) was 101%. It also gave a normalised response (BT-474) of 91.7%, a normalised response (MDA-MB-231) of 103% and a normalised response (Hs578T) of 98.8%. It also gave a normalised response (HCC1937) of 59%, a normalised response (HCC1599) of 96.7% and a normalised response (CAL-148) of 94.7%. For the same molecule, the normalised response (CAL-51) was 72.1%.

Work on Cc1cccc(-c2nn3c(c2-c2ccnc4ccc(C(N)=O)cc24)CCC3)n1 [Galunisertib] (0.1 nM) yielded a normalised response (CAL-85-1) of 95.6%, a normalised response (MDA-MB-468) of 97.6% and a normalised response (BT-549) of 94.1%. It also gave a normalised response (HDQ-P1) of 89.5%, a normalised response (HCC1143) of 114% and a normalised response (DU-4475) of 107%. The normalised response (MDA-MB-453) was 114%, the normalised response (CAL-120) was 98.3% and the normalised response (MDA-MB-436) was 102%. The normalised response (MCF-10A) was 106%, the normalised response (MFM-223) was 104% and the normalised response (BT-474) was 101%. For the same molecule, the normalised response (MDA-MB-231) was 106%, the normalised response (Hs578T) was 71.2% and the normalised response (HCC1599) was 107%. For the same molecule, the normalised response (CAL-148) was 79% and the normalised response (CAL-51) was 109%.

CN(C)c1nc(N(C)C)nc(N(C)C)n1 [Altretamine] (1 nM) gave a normalised response (CAL-85-1) of 107%, a normalised response (MDA-MB-468) of 58.2% and a normalised response (BT-549) of 87.6%. It also gave a normalised response (HDQ-P1) of 99%, a normalised response (HCC1143) of 129% and a normalised response (DU-4475) of 105%. The normalised response (MDA-MB-453) was 104%, the normalised response (CAL-120) was 103% and the normalised response (MDA-MB-436) was 82.2%. It also gave a normalised response (MCF-10A) of 92.9%, a normalised response (MFM-223) of 98% and a normalised response (BT-474) of 101%. The normalised response (MDA-MB-231) was 109%, the normalised response (HCC1937) was 99.8% and the normalised response (HCC1599) was 110%. The normalised response (CAL-148) was 104% and the normalised response (CAL-51) was 119%.

With CO[C@@H]1[C@H](N(C)C(=O)c2ccccc2)C[C@H]2O[C@]1(C)n1c3ccccc3c3c4c(c5c6ccccc6n2c5c31)C(=O)NC4 [Midostaurin] (1 nM) the normalised response (CAL-85-1) was 109%, the normalised response (MDA-MB-468) was 58.1% and the normalised response (BT-549) was 90.5%. For the same molecule, the normalised response (HDQ-P1) was 76.6%, the normalised response (HCC1143) was 111% and the normalised response (DU-4475) was 95.4%. The normalised response (MDA-MB-453) was 94.7%, the normalised response (CAL-120) was 96.8% and the normalised response (MCF-10A) was 101%. It also gave a normalised response (MFM-223) of 101%, a normalised response (BT-474) of 97.3% and a normalised response (MDA-MB-231) of 101%. The normalised response (HCC1937) was 95.5%, the normalised response (HCC1599) was 82.3% and the normalised response (CAL-148) was 105%. The normalised response (CAL-51) was 105%.

CCOC(=O)CCNc1cc(N2CCc3ccccc3CC2)nc(-c2ccccn2)n1 [GSK-J4] (10 nM) showed a normalised response (CAL-85-1) of 106%, a normalised response (MDA-MB-468) of 72.4% and a normalised response (BT-549) of 89.2%. The normalised response (HDQ-P1) was 99.3%, the normalised response (HCC1143) was 107% and the normalised response (DU-4475) was 104%. The normalised response (MDA-MB-453) was 99.3%, the normalised response (CAL-120) was 96.8% and the normalised response (MDA-MB-436) was 89.3%. The normalised response (MCF-10A) was 104%, the normalised response (MFM-223) was 105% and the normalised response (BT-474) was 98.4%. The normalised response (MDA-MB-231) was 116%, the normalised response (Hs578T) was 106% and the normalised response (HCC1599) was 102%. It also gave a normalised response (CAL-51) of 91.3%.

CC[C@H](CC#N)OC(=O)N[C@@H](C)c1cccc(NC(=O)Nc2ccc(-c3cnco3)c(OC)c2)c1 [AVN944] (1 nM) was tested, and the normalised response (CAL-85-1) was 101%, the normalised response (MDA-MB-468) was 95.1% and the normalised response (BT-549) was 98.9%. It also gave a normalised response (HCC1143) of 94.6%, a normalised response (DU-4475) of 98.4% and a normalised response (MDA-MB-453) of 99.3%. For the same molecule, the normalised response (CAL-120) was 98.8%, the normalised response (MDA-MB-436) was 82.5% and the normalised response (MFM-223) was 101%. The normalised response (BT-474) was 97.3%, the normalised response (MDA-MB-231) was 96.4% and the normalised response (Hs578T) was 97.9%. It also gave a normalised response (HCC1937) of 105%, a normalised response (HCC1599) of 101% and a normalised response (CAL-148) of 52.8%. For the same molecule, the normalised response (CAL-51) was 79.7%.

COc1c(C)cnc(Cn2cnc3c(Cl)nc(N)nc32)c1C [BIIB021] (1 nM) gave a normalised response (CAL-85-1) of 103%, a normalised response (MDA-MB-468) of 86.4% and a normalised response (BT-549) of 101%. The normalised response (HDQ-P1) was 94.1%, the normalised response (HCC1143) was 99.7% and the normalised response (DU-4475) was 102%. It also gave a normalised response (MDA-MB-453) of 107%, a normalised response (CAL-120) of 102% and a normalised response (MDA-MB-436) of 90.7%. The normalised response (MCF-10A) was 106%, the normalised response (MFM-223) was 103% and the normalised response (BT-474) was 94.9%. It also gave a normalised response (MDA-MB-231) of 99.8%, a normalised response (HCC1937) of 114% and a normalised response (HCC1599) of 100%. The normalised response (CAL-148) was 103% and the normalised response (CAL-51) was 98.1%.

In the case of CNC(=O)c1ccc(N2C(=S)N(c3ccc(C#N)c(C(F)(F)F)c3)C(=O)C23CCC3)cc1F [RD162] (1 nM), the normalised response (CAL-85-1) is reported as 98.7%, the normalised response (MDA-MB-468) is reported as 91.7% and the normalised response (BT-549) is reported as 90.8%. It also gave a normalised response (HDQ-P1) of 108%, a normalised response (HCC1143) of 112% and a normalised response (DU-4475) of 107%. The normalised response (MDA-MB-453) was 106%, the normalised response (CAL-120) was 103% and the normalised response (MDA-MB-436) was 100%. The normalised response (MCF-10A) was 107%, the normalised response (MFM-223) was 106% and the normalised response (BT-474) was 100%. For the same molecule, the normalised response (MDA-MB-231) was 111%, the normalised response (Hs578T) was 114% and the normalised response (HCC1599) was 109%. For the same molecule, the normalised response (CAL-148) was 102% and the normalised response (CAL-51) was 116%.

For Cc1nc(Nc2ncc(C(=O)Nc3c(C)cccc3Cl)s2)cc(N2CCN(CCO)CC2)n1 [Dasatinib] (0.1 nM), the normalised response (CAL-85-1) was 106%, the normalised response (MDA-MB-468) was 110% and the normalised response (BT-549) was 101%. For the same molecule, the normalised response (HCC1143) was 120%, the normalised response (DU-4475) was 107% and the normalised response (MDA-MB-453) was 102%. It also gave a normalised response (CAL-120) of 105%, a normalised response (MDA-MB-436) of 102% and a normalised response (MCF-10A) of 113%. The normalised response (MFM-223) was 104%, the normalised response (BT-474) was 98.2% and the normalised response (MDA-MB-231) was 103%. It also gave a normalised response (Hs578T) of 93.9%, a normalised response (HCC1937) of 55% and a normalised response (HCC1599) of 111%. The normalised response (CAL-148) was 102% and the normalised response (CAL-51) was 84.4%.

C[C@]12C=CC(=O)C=C1CC[C@@H]1[C@@H]2[C@@H](O)C[C@@]2(C)[C@H]1CC[C@]2(O)C(=O)CO [Prednisolone] (1 nM) gave a normalised response (CAL-85-1) of 98.5%, a normalised response (MDA-MB-468) of 109% and a normalised response (BT-549) of 79.5%. For the same molecule, the normalised response (HDQ-P1) was 99.9%, the normalised response (HCC1143) was 121% and the normalised response (DU-4475) was 101%. For the same molecule, the normalised response (MDA-MB-453) was 101%, the normalised response (CAL-120) was 98.2% and the normalised response (MDA-MB-436) was 88.6%. It also gave a normalised response (MCF-10A) of 104%, a normalised response (MFM-223) of 99.1% and a normalised response (BT-474) of 101%. It also gave a normalised response (MDA-MB-231) of 112%, a normalised response (Hs578T) of 92.2% and a normalised response (HCC1599) of 92.9%. It also gave a normalised response (CAL-148) of 91.9% and a normalised response (CAL-51) of 100%.
